Results published in patent US20170306038A1, “COMPOSITIONS AND METHODS OF USE FOR AUGMENTED IMMUNE RESPONSE AND CANCER THERAPY” (priority 2014, published 2017).
Residue numbers refer to the chain shown, from its start. Results are given in words; binding and its absence hold for the method and conditions named. Some binding calls cover weakened binding; strength is not graded here. For some assays here: Sequences can lack the tags named with a protein. Values belong to the binder of their own block, whether it stands above or below them.

Experiments:
[1] = target: T1, Recombinant human GITR and human Fc fusion protein (hGITR-hFc) (human) (UniProt Q9Y5U5); assay: ForteBio Octet QK, streptavidin biosensors coated with biotinylated hGITR-hFc
T1 sequence (chain, biotinylated in the ForteBio assay (sites not stated)): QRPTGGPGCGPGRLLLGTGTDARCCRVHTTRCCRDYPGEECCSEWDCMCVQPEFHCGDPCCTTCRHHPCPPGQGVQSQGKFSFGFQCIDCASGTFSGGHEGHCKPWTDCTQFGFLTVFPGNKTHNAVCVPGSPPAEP

[2] = target: T2, human GITR (hGITR) (human) (UniProt Q9Y5U5); assay: sandwich ELISA of hybridoma supernatant
T2 sequence: T1 sequence (chain, biotinylated in the ForteBio assay (sites not stated))

binding [1]: binds
B1: MAB1rFab (Fab, V domains shown)
VH: QVQLKESGPGLVAPSQSLSITCTVSGFSLRSYGVDWVRQPPGKGLEWLGVIWGGGGTNYNSALMAKLSISKDKSKSQVFLKMNSLQTDDTAMYYCAKHAYGHDGGFAMDYWGQGTSVTVSS
VL: EIVMTQSPKSMSMSVGERVTLSCKASENVDTFVSWYQQKPDHSPKLLIYGASNRYTGVPDRFTGSGSATDFTLTISSVQAEDLADYHCGQSYSYPFTFGSGTKLEIK

binding [2]: binds
B2: MAB1 (antibody, V domains shown)
VH: B1 VH
VL: B1 VL with E1N
